Article PMC6812846
These are yes or no findings as the source states them, for the method shown. Binding seen in cells or lysates may run through a third protein. Some entries that bind do so weakly or less than the wild type. Where a sequence is shown, tags or fusion partners need not be part of it.

Chains of the proteins cited; added tags and fusions are not shown.
UniProt P09874: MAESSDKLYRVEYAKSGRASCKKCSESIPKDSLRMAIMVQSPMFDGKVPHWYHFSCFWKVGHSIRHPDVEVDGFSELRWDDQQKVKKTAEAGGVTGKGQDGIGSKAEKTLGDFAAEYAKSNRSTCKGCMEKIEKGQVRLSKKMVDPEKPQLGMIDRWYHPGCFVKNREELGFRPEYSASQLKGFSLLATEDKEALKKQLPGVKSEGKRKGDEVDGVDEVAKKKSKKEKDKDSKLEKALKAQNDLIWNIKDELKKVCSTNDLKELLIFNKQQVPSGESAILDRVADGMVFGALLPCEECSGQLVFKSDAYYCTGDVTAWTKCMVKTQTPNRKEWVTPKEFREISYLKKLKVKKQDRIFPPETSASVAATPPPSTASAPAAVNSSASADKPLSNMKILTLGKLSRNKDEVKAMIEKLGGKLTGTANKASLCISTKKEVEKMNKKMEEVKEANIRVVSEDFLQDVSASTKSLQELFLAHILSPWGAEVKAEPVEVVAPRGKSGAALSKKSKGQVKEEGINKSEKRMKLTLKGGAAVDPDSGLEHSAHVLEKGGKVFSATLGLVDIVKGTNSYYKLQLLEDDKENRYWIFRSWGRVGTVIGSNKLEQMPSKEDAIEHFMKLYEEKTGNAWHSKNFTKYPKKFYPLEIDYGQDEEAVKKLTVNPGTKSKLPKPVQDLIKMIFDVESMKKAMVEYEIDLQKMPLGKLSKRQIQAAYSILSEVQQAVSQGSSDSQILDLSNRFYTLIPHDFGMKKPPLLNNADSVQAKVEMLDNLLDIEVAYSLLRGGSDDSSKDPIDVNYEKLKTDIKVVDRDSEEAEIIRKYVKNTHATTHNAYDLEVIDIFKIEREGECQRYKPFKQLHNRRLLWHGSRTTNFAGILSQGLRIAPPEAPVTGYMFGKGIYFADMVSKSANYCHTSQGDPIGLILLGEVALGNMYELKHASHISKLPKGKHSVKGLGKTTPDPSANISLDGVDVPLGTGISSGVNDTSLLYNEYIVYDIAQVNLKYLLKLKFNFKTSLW
UniProt Q9UGN5: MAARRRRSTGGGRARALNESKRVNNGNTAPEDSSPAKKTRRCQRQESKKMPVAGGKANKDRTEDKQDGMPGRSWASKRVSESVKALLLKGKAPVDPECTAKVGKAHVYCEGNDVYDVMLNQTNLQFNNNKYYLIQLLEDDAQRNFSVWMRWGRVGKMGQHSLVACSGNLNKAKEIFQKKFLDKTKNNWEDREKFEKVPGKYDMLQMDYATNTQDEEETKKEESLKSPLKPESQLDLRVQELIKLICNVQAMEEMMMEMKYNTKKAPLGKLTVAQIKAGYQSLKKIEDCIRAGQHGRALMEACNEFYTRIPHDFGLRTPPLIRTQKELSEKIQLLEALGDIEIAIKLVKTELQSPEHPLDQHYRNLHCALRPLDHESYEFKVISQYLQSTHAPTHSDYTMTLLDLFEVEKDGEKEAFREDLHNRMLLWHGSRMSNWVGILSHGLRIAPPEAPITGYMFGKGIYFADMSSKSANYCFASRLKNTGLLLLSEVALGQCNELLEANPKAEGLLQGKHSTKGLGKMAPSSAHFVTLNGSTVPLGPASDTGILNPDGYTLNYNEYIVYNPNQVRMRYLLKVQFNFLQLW

Experiments:
Assay in all cases: co-IP; reciprocal co-IP from hESCs reconstructed with 3×Flag-KHDC3L (antibody against Flag, and reciprocal immunoprecipitation); 1 × 10^7 cells lysed in RIPA lysis buffer, Protein G Dynabeads, immunoblotting; cells with or without DNA damage
[1] = target: T1, 3×Flag-KHDC3L (wild-type KH domain containing 3 like) (human) (UniProt Q587J8)
T1 sequence: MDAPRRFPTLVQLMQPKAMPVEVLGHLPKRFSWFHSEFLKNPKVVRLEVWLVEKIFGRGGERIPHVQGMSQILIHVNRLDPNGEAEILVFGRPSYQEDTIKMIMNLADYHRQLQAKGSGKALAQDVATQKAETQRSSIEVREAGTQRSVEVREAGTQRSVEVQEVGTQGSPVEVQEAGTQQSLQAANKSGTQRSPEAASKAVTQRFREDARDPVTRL

[2] = target: T2, 3×Flag-KHDC3L Δ11 (p.E150_V160del) (human) (UniProt Q587J8)
T2 sequence: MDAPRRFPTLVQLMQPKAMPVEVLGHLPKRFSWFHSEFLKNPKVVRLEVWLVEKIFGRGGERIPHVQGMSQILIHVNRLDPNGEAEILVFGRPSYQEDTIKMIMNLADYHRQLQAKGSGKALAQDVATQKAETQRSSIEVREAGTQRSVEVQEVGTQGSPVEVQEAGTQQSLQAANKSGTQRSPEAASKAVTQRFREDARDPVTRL

[3] = target: T3, 3×Flag-KHDC3L Δ23 (p.E150_V172del) (human) (UniProt Q587J8)
T3 sequence: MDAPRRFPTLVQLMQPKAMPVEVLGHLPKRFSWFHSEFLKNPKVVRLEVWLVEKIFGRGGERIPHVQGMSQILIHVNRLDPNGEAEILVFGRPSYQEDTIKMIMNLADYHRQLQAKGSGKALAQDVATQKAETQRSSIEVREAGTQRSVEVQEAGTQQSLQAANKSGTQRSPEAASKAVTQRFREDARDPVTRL

[4] = target: poly(ADP-ribose) polymerase 1 (human (endogenous in hESCs)) (UniProt P09874)

Molecule | binding [1] | binding [2] | binding [3] | binding [4]
PARP2 (from UniProt Q9UGN5 1-583) (enzyme) | no binding |  |  | 
poly(ADP-ribose) polymerase 1 (from UniProt P09874 1-1014) (enzyme) | binds | binds | binds | 
3×Flag-KHDC3L (wild-type KH domain containing 3 like) (protein, UniProt Q587J8 1-217) MDAPRRFPTLVQLMQPKAMPVEVLGHLPKRFSWFHSEFLKNPKVVRLEVWLVEKIFGRGGERIPHVQGMSQILIHVNRLDPNGEAEILVFGRPSYQEDTIKMIMNLADYHRQLQAKGSGKALAQDVATQKAETQRSSIEVREAGTQRSVEVREAGTQRSVEVQEVGTQGSPVEVQEAGTQQSLQAANKSGTQRSPEAASKAVTQRFREDARDPVTRL |  |  |  | binds
